The target in this assay is T1, Bacillus subtilis FolE, zinc dependent GTP cyclohydrolase (B. subtilis) (UniProt P19465).
T1 sequence: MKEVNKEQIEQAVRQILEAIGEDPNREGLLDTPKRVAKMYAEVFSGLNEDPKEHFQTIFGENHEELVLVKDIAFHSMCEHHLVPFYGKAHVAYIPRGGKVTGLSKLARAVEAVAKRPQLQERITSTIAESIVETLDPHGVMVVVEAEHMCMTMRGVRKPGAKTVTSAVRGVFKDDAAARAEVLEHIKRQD
Kind of assay: two-hybrid.

Results are given in words; binding and its absence hold for the method and conditions named. Binding can be weak; no strength is given.

For “Acinetobacter baylyi ZagA homolog (A. baylyi)”, the binding entry was “binds”.

Source of the values: article doi:10.1101/594382.
